Data reported in publication PMC11036802.

T1: PfEAF2::GFP (endogenous PfEAF2 tagged with GFP) (P. falciparum (endogenous in 3D7 parasites)) (UniProt C6KTC1)
T1 sequence: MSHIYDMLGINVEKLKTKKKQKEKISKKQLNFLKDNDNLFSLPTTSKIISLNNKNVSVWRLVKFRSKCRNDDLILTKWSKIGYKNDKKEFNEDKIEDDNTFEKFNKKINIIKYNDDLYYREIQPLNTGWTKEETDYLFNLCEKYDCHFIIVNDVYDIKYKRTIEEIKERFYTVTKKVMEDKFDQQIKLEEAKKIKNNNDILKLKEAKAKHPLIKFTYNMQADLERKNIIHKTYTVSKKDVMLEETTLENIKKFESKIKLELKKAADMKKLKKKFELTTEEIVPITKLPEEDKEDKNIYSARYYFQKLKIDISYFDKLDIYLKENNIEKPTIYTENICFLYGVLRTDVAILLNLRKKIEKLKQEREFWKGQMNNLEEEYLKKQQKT

T2: PfMYST::PTP (endogenous PfMYST with a C-terminal PTP tag) (P. falciparum (endogenous in 3D7 parasites)) (UniProt Q8III2)
T2 sequence: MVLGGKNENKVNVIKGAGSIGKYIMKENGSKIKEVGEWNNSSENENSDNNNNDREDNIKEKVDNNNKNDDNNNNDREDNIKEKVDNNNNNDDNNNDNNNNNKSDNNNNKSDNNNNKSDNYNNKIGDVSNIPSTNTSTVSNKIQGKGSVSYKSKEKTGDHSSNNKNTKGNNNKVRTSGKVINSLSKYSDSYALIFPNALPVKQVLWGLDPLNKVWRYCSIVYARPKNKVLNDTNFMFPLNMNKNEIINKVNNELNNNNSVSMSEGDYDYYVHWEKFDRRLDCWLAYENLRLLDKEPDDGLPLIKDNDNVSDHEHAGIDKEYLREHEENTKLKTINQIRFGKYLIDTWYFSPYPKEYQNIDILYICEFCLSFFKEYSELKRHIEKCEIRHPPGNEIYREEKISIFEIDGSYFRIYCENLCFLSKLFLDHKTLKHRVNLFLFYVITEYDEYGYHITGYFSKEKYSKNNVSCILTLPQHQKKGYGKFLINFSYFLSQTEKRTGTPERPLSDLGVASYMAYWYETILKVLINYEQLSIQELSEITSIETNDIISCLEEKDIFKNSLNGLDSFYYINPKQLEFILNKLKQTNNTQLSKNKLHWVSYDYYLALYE

B1: SNF2L (PF3D7_1104200) (protein, UniProt Q8IIW0 1-1426)
chain: MFRNVRDYFKSSNDVNEEKKNDVGSVHMDENTENYDKESNGFVHRDFNNGINKEDKDYEELDLKKLNVSSNDITKEGNNMNENMMNRKLNSSVEDGNDNNHDKNVHRNIGNDTHVSYDDKRKSYLDNNEENSEQMNDNMKKRKLNEISYDNNEEDEFRNKKDDSMEMNDKEKGSTNMSTINDNNNNHNDDSNNHNDDSNNHNDDSNNHNDDSNNHNDDNNNHNEDNNNHNDDNNNHNDDNNYNSEEKPNYLQEKLEQLLAQTKRYTEKLAGQRLKMNAQMKSSKKGRCLLTEKEEDFMLLKDANEEDEAIILKQPMNINGTMKPYQLEGLNWLYQLYRFKINGILADEMGLGKTLQTISLLCYLRFNKNIKKKSIIICPRSTLDNWYEEIKKWCTPMKAFKYYGNKDQRKELNRNLLHSDFDVLLTTYEIVIKDKSALYDIDWFFLVIDEAHRIKNEKSVLSSSVRFLRSENRLLITGTPLHNNLKELWSLLNFLMPKIFDNSEEFDNLFNISKISTNDNKQSEIITQLHTILKPFMLRRLKVEVEQSLPPKREIYIFVGMSKLQKKLYSDILSKNIDVLNAMTGSKNQMLNILMQLRKCCNHPYLFDGIEEPPYIEGNHLIETSGKMSLLDKLLPRLKKENSRVLLFSQMTRLLDIIDDYCRWKNYPYLRIDGSTPGDERQVRINQFNEPNSKYFIFLLSTRAGGIGINLTTADIVILFDSDYNPQMDIQAMDRAHRIGQKKRVIVYRFVTQNSVEEKIVERAAKKLKLDSLIIQKGKLNLNSAKENNKQELHDILNFGAPEVYKTQDISSISDEDIDIILADAEKRTIEIEKKLKNLENIFDLTNISLDGGLNMYNDLEKEASEESTDEEDSSGSGEETILEGSGNNDIVEENGVKKKKKKKKNINKIRRTIKKFLKNNKKNMTFLDLGERKSKWKVMNTACGRTNKKKMVLHGWRAEARGGHDFQFFNVEKLDELEKIEDKWNNYMINQEKINVLIEAQNEEKDYEKIVTFNEFLDKHAKNIYQIITLINPSLFDEHKDTKEEELLKMGTHSDVNSNDKDYKRSSFMSTDYNMKTTYLNNINSNNNNNNNNINDNVGTSINTIDDQQYFKKKILSLFESGKKLQMIKFKDRNIKNCYTQVANFIKKNFPEKINNNDTNNNKSTTLKNKKLKKGKQTKNVNVEKDIASVDIEKIKLQKQELMKQGFAKWNKAEFNKLMSGLIIYGTNEVEYIYEKYFSNSKKSMEDIKAYLTVFFRKYDQIKGGVRLFDKIKRSDLQKKIIEEENDMITEFVEKQLSEGVDSIEKLQLPSNLRYDFMEKREVLNITEEVKTENEENVLSNEELAYYDRENKILLWLLYQQGVVQIKNIHILTPYYWPEAYNFFKYATTPFENVEYRCRLIVDAIAELYAKKENVPLNNKDKRRI
B2: PfARP4 (protein, UniProt Q8ILM5 1-522)
chain: MKLKNDENVNFLCGGEDISSLVVDLGFYSCKIGHNQEDTPRIFLNSICGEREMNDEYENYMDGSLKNINYKELKYPLNLYNRNENIRIKPLFYKDDNKDDIKLNADVFEKILEYSIEGIEIPKVFECTDDIIMDPIKLGGLNLNFEEHPILLTEFNMHNHKIREQMTEILFEKYNIPALYFAKKAKLTSFSLGRSTSLVIDIGYNSLDINPVYEGYVLQKNSLEYNIGGQYFDKLIYEQLIKDNVNIIPYFVYCNGYDNMHTCFNDNINGSIHNNNHNNIGHNNNIDNINHHGNSNTYQENSLENSVNPFYNIHHSYKEECILDVIRYMKESVCRTRIINDDSKCEEKKNSIQNITNLNEQNNIHISNENNIKDACTKEEFFELPDGYKINIHKYKYDIAEHLFHSIPSLNNFKGLPQSIINCIISTDVDIRKELLQSIVITGGSSLFPGLIERLHNSLKEKECFTQSNKFKILNMTSLVEQKYSSWLGGSILASLGTFQQMWVSKKEYHESGHNIILDRCF
B3: PfEAF2 (protein, UniProt C6KTC1 1-385)
chain: T1 sequence
B4: karyopherin-α (PF3D7_0812400) (protein, UniProt Q8IAW0 1-545)
chain: MDRRIEARRKEFKKNCDDTRRKREDLVVQIRKQQRECQLESKRAMVMANIGFEENNTYNLNYAKGNQNDSTNDSIYNTSSNNSSNTLEMLKKIPTLAIGVRSNEYVTQLNSTRELRKLLSIEKGPPIQEVINSGVVPYIVEFLKYDDKTDLQFEAAWVITNIASGSQEQTKVVIDNNAVPHLVRLLSSEKEDVCEQAVWALGNIAGDSAECREYVLNQNSLPLLLKILRTSHKRTLIRNAAWTLSNLCRGKPAPKFEIVSKALPTLAALIYNDDEEILTDACWTLSYLSDGSNENINSVLDAGVAERVVELLSHCSFLVQTPALRTVGNIVTGDDLQTDVVVKLGAVQKLSCLLNSSKKSIKKEACWALSNITAGNISQIQAVIDNNVIPQLINILMKEDFEVRKEAAWAISNASSGGSELQIEYLVECGAIHSLSNLLDVEDANIISVTLEGLENILEMGENKKLRDNLPTNPYVHLFEECDSVHKIDALQDRKVDNICNKAWKILYKYFPFVINNELNNAQIPLNNVFANTEDAVLNKDFTFD
B5: ATP-dependent protease ClpY (PF3D7_0907400) (protein, UniProt Q8I377 1-922)
chain: MKNLDANKCIKLINGLKQKKNYPYFSLQCLKNISNEKEKIHDKLLTFIPNNSRKIINSGTKSNYDSRFDKLIQNNKNNKNYNNINYKVIDHNKSNEECNVKNNFSINNKNVHISDINVKQKDKGDDLVIHIKYEPDNNKNGKKNEGQQILYNYDEMNYGNEDKTKLYIMNNYDEVGTKCNYKEYVSYNMNPHEYGKREDVNINGNNINNINNINSMNNINNINSINSINNNNINNSYNSYNNCKYINNNNNNDYNNFSRHGEKQKKYTMFLKKDDISKNIDQKEHINNLNSINNLDNMNETCDDTTSCTHSKNTRSDKKTDASISGKDDIVRDSYSSDKKKENMENFAKVKITKENIININEIKEEDVKKVKKVMGHKKETNEYNIKDEKNDNIYDIKVDIKKEEKDNIYDIKVDIKNEELPKSTIASEVPNHNSNVLKNDNIGKKNYFSSGSMKSGNVLKEEIKSDDSKINFQMKNGKSSKKCLYPHEIVEYLNKYIIGQSEAKKVVANALRQRWRRIQVSDDMKKDIIPKNILMIGPTGVGKTEIARRISMFVDAPFIKVEATKFTEVGFHGKDVDQIIKDLVEIAVKRQKTKFEIEIREQAEETVENIILYSLLGNIKEEEKNIWRKYLKDGSLDDKVISIDIPNYINNNIFSNDSVENAVKEALSNHQNIKSVKIIHQNINKQSDKKTMTIREARQKLLQLEIDSSINQDTILKTAINSVEEEGIVFIDEIDKICSKSNSSYNGPDASAEGVQRDLLPLIEGCVINTKYGNINTNYILFIASGAFQRVKPNDMLNELQGRLPVHVTLSSLTIKDFIDILTKTHNNLLQQNIALLKTEGIDLKFTDDAIETIANAAHDMNFYVENIGVRRLHTIIEKIMEDINYDVYNYVNQSIVIDKDKVNKSLEGFIKQYDLKKYII

biological target: T1, PfEAF2::GFP (endogenous PfEAF2 tagged with GFP) (P. falciparum (endogenous in 3D7 parasites)); test: affinity purification with mass spectrometry; single-step pulldown of PfEAF2::GFP with GFP-trap beads from lysates of 10^9 parasites; LC-MS/MS, same SAINT thresholds; three replicates

binding | Binder
binds | B1
binds | B2

biological target: T2, PfMYST::PTP (endogenous PfMYST with a C-terminal PTP tag) (P. falciparum (endogenous in 3D7 parasites)); test: affinity purification with mass spectrometry; tandem affinity purification (IgG agarose beads, TEV protease, anti-protein C beads) of PfMYST::PTP from nuclear extracts of 10^9 asexual blood-stage parasites in PA150 buffer (150 mM KCl, 20 mM Tris-HCl pH 7.7, 3 mM MgCl2, 0.5 mM DTT, 0.1% Tween 20), 4°C; WT 3D7 as control; LC-MS/MS, SAINT probability above 95%, FDR below 1%; three replicates

binding | Binder
binds | B3
binds | B4
binds | B5
binds | B2

No constants are given. Whether binding was seen depends on the method and setting. In cells and extracts the contact can be indirect. A yes stands for co-enrichment or nearness to the bait. Other partners may have been found. Sequences can lack the tags named with a protein.
